# Results reported in the supplement of paper PMC10849652.
# Chains of the proteins cited; added tags and fusions are not shown. Lines headed by an entry give the natural chain unless they say otherwise; changes in a name come on top.
# UniProt O60306: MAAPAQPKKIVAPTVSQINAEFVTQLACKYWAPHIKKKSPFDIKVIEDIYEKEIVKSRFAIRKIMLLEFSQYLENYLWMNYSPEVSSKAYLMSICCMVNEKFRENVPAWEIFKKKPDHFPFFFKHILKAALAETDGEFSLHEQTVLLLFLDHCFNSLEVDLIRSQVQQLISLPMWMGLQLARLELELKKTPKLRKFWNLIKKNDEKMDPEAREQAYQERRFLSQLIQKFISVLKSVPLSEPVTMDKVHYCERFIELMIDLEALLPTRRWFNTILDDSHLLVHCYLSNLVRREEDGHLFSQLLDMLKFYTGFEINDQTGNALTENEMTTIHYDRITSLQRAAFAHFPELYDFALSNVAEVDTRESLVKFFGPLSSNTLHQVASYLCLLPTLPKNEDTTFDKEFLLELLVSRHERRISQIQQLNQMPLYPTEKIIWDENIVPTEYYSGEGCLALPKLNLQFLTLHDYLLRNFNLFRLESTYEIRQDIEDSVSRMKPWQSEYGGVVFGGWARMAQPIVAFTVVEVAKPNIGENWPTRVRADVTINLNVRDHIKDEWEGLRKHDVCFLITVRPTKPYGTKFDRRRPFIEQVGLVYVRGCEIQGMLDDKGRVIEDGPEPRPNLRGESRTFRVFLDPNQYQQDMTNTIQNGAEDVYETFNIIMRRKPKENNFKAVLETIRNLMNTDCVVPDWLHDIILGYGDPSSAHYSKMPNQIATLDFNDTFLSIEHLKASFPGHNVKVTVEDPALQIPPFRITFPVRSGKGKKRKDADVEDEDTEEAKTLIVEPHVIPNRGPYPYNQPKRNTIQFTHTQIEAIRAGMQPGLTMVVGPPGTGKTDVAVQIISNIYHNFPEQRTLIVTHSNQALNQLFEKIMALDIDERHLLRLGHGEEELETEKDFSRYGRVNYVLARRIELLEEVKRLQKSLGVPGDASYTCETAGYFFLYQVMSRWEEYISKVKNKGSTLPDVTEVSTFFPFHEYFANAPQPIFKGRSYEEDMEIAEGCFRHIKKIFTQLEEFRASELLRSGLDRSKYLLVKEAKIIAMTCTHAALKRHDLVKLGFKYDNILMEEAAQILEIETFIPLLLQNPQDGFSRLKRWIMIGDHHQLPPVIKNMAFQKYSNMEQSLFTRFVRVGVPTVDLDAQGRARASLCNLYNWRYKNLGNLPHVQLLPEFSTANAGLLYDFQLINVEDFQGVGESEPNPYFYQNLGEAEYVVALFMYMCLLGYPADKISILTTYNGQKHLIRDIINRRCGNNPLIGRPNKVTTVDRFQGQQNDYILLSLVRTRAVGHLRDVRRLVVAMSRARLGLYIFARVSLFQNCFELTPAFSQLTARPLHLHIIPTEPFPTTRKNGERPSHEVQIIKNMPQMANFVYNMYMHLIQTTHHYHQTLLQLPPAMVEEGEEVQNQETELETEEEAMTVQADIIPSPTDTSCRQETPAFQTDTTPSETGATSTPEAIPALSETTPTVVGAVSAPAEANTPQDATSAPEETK
# UniProt P39687: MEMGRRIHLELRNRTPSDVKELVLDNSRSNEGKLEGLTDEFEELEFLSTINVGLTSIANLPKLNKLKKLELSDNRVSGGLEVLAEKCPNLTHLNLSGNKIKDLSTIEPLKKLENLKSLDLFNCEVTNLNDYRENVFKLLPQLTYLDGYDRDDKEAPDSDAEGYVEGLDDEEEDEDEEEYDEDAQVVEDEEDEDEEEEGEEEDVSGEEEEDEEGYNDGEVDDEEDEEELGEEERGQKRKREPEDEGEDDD
# UniProt O15084: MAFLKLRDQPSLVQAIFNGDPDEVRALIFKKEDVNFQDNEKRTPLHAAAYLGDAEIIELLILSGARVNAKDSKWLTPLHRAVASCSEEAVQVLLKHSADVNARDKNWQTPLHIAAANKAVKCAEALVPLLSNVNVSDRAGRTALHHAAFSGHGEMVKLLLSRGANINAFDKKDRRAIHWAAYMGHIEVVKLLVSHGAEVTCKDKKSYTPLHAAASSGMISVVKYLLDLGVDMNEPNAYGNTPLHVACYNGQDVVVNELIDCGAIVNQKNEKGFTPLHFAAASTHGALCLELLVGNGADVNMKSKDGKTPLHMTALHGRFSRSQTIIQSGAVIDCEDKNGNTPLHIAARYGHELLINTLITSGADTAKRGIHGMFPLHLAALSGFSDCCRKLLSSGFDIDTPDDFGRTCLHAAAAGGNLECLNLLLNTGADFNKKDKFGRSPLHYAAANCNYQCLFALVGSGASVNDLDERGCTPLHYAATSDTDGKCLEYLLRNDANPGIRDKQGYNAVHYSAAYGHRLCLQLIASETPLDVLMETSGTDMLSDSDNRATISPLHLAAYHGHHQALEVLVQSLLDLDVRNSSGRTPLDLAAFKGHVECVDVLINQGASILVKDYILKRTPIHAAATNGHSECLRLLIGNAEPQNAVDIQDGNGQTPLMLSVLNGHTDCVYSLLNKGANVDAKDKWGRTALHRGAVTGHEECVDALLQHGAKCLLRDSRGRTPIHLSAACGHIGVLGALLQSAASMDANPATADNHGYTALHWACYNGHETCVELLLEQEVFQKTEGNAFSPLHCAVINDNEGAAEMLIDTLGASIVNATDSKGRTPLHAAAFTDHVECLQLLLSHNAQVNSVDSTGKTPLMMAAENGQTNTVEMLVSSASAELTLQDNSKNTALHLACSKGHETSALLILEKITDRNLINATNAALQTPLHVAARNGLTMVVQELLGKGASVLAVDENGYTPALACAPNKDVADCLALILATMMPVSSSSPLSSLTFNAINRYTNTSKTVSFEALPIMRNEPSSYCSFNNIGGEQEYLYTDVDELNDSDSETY
# UniProt Q4KMQ2: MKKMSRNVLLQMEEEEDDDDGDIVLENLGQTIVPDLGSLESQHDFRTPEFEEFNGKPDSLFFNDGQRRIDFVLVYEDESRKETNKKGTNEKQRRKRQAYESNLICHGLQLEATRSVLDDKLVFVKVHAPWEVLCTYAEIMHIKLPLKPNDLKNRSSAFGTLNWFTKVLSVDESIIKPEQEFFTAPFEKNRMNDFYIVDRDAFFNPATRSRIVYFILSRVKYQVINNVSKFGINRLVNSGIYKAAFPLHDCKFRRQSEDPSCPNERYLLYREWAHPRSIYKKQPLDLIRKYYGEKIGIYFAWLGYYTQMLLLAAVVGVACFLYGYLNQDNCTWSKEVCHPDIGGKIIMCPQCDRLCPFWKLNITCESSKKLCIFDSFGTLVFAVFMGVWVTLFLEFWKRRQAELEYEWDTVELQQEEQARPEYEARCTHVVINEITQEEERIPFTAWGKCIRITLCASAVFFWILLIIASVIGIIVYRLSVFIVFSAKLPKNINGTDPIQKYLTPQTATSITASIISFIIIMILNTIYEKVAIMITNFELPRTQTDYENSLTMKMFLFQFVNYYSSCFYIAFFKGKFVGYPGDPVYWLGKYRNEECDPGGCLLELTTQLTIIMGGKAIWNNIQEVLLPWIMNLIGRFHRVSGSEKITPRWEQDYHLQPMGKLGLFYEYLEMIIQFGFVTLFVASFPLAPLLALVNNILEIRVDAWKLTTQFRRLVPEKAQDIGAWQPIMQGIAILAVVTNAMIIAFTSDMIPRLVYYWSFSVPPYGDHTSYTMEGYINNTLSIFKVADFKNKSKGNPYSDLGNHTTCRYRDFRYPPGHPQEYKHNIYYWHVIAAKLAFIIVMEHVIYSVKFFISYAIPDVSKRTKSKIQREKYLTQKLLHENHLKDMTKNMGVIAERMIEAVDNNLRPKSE
# UniProt Q96BI3, whole entry, looked up: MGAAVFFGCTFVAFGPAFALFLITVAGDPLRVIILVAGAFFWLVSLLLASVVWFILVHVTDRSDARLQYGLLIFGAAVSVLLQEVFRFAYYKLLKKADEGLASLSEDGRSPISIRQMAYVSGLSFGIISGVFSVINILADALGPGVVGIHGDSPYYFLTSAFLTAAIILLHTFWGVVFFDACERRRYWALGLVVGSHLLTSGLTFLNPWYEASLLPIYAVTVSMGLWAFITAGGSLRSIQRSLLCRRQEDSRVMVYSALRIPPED
# UniProt P56377: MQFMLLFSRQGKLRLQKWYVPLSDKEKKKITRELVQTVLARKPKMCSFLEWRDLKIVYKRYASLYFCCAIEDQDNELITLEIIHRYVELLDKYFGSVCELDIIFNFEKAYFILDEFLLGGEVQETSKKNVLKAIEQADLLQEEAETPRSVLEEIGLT
# UniProt P48444: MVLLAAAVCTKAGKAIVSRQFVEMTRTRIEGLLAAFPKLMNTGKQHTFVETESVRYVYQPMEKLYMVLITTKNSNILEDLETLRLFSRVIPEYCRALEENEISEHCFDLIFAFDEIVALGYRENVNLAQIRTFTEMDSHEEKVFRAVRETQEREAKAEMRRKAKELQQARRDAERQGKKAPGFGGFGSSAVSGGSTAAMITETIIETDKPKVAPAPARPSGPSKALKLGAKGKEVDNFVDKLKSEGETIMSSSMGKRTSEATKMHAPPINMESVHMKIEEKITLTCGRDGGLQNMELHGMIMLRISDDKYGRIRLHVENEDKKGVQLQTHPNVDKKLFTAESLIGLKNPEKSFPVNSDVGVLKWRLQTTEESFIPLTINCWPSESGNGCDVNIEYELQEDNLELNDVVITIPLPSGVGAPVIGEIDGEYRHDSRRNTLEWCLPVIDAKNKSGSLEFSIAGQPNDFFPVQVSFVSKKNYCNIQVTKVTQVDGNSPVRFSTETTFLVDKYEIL
# UniProt Q9BQD7: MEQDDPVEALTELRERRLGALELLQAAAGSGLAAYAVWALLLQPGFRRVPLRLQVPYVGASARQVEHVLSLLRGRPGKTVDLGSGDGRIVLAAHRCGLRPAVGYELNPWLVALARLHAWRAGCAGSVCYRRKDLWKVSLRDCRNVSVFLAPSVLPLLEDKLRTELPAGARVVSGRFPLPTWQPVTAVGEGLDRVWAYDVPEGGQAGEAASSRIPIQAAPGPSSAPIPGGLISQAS
# UniProt Q9HDC9: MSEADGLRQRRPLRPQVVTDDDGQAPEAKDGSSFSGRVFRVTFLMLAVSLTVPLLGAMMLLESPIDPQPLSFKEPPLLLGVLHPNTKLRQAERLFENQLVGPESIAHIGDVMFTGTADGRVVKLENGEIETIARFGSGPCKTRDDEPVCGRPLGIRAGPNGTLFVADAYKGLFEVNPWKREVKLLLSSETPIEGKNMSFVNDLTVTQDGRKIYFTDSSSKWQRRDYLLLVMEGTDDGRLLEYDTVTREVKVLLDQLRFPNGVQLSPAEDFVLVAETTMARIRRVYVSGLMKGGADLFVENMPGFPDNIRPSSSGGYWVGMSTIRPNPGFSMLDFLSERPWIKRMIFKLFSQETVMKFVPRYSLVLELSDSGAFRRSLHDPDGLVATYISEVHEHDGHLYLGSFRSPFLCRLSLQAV
# UniProt P52565: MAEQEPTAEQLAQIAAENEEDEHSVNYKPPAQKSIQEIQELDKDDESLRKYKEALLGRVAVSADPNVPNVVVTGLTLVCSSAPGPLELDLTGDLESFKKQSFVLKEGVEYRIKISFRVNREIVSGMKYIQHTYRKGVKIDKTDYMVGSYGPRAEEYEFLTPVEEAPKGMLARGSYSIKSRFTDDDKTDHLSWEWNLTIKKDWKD
# UniProt P02749: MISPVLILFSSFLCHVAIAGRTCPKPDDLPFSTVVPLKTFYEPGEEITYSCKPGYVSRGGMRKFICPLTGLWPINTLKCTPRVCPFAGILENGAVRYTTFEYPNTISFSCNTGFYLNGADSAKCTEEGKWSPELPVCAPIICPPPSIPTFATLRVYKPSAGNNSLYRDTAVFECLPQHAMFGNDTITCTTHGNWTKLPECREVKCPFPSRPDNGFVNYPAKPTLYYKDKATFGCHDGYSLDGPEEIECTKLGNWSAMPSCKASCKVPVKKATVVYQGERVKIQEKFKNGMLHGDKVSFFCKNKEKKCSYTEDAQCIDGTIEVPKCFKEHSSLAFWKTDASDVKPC
# UniProt P78540: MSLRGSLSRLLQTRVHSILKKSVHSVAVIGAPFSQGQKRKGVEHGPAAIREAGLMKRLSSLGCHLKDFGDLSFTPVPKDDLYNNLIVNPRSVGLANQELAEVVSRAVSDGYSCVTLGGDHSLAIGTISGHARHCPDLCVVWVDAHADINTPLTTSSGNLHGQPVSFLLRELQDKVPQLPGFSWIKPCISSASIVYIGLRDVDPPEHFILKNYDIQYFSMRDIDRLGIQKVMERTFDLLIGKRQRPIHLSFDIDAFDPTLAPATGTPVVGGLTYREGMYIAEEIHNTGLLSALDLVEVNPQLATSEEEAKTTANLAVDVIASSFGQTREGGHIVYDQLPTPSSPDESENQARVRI
# UniProt Q9BUR5: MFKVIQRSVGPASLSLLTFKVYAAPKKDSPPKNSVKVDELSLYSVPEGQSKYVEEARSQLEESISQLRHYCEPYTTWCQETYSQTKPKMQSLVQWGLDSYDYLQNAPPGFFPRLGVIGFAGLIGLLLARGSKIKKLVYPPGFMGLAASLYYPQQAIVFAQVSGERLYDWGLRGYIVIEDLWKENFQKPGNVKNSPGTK
# UniProt P61204: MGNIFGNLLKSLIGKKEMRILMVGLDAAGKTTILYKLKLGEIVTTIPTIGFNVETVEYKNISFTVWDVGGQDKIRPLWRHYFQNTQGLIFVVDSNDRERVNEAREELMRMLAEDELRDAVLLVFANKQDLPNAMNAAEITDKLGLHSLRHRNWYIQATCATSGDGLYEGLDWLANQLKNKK
# The other results are listed elsewhere or left out.
# What was measured:
# Test in all cases: log2 fold change, soluble protein after heating vs DMSO (PISA); higher = thermal stabilisation; K562 cells, 10 uM, 30 min; active = over 0.2 and 3.5 SD of the protein, either way, in both replicates (recomputed)
# [1] = compound: NC(=O)Nc1cc(-c2cccc(F)c2)sc1C(=O)N[C@H]1CCCNC1
# Method in brief: (§1)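 K562 cells at 2×10^6 cells/mL were exposed to 10 μM compound for 30 min, then aliquots were heated for 3 min across 48°C-58°C, pooled, and extracted in PBS containing 0.5% NP-40 at 4°C. The supernatant after 21,000xg for 90 min was taken as soluble protein and measured by TMTpro 16plex LC-MS/MS with channel sums equalised. Thermal stability is reported relative to control samples, with values from duplicates. Fold changes are given on a log2 scale.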
# [2] = compound: NC(=O)c1cnc(N[C@@H]2CCCC[C@@H]2N)nc1Nc1cccc(-n2nccn2)c1
# Method in brief: as §1
# [3] = compound: NC1(c2ccc(-c3nc4ccn5c(=O)[nH]nc5c4cc3-c3ccccc3)cc2)CCC1
# Method in brief: as §1
# [4] = compound: NCC(=O)Nc1ccc(-n2nc(C(F)(F)F)cc2-c2ccc3c(ccc4ccccc43)c2)cc1
# Method in brief: as §1
# [5] = compound: Nc1ccccc1NC(=O)c1ccc(CNC(=O)OCc2cccnc2)cc1 [entinostat]
# Method in brief: as §1
# [6] = compound: O=C(CCCCCCC(=O)Nc1ccccc1)NO [vorinostat]
# Method in brief: as §1
# [7] = compound: O=C(CCCCCCNC(=O)c1cnc(N(c2ccccc2)c2ccccc2Cl)nc1)NO [citarinostat]
# Method in brief: as §1
# [8] = compound: O=C(O)c1ccc2c(c1)nc(Nc1cccc(Cl)c1)c1ccncc12 [silmitasertib]
# Method in brief: as §1
# [9] = compound: O=C1NC(=O)C(c2cnc3ccccn23)=C1c1cn2c3c(cc(F)cc13)CN(C(=O)N1CCCCC1)CC2
# Method in brief: as §1
# [10] = compound: c1cc(OCCN2CCCCC2)cc(-c2n[nH]c3ccc(-c4nnc[nH]4)cc23)c1
# Method in brief: as §1
# [11] = compound: c1cn2cc(-c3ccc4cn[nH]c4c3)nc(Nc3ccc(N4CCOCC4)cc3)c2n1 [entospletinib]
# Method in brief: as §1
Target,log2 fold change [1],log2 fold change [2],log2 fold change [3],log2 fold change [4],log2 fold change [5],log2 fold change [6],log2 fold change [7],log2 fold change [8],log2 fold change [9],log2 fold change [10],log2 fold change [11]
AP1S1 (UniProt P61966),inactive: -0.04,inactive: -0.111,inactive: -0.063,inactive: -0.051,inactive: 0.017,inactive: 0.042,inactive: -0.07,inactive: 0.088,inactive: 0.045,inactive: -0.109,inactive: -0.003
AQR (UniProt O60306),inactive: -0.009,inactive: -0.02,inactive: -0.078,inactive: 0.23,inactive: -0.004,inactive: 0.002,,inactive: 0.165,inactive: 0.022,,
ANP32A (UniProt P39687),inactive: -0.029,inactive: -0.013,inactive: 0.032,inactive: 0.052,inactive: 0.02,inactive: 0.043,inactive: 0.097,inactive: -0.005,inactive: 0.088,inactive: -0.018,inactive: -0.1
ARHGAP4 isoform 2 (UniProt P98171),inactive: 0.197,inactive: -0.079,inactive: 0.021,inactive: -0.036,inactive: 0.081,,inactive: 0.047,inactive: -0.043,,inactive: -0.097,
ANKRD26 (UniProt Q9UPS8),inactive: 0.242,inactive: 0.08,inactive: 0.028,inactive: 0.007,inactive: -0.001,inactive: 0.053,,inactive: -0.011,,,
AP3S1 (UniProt Q92572),inactive: 0.001,inactive: 0.015,inactive: -0.03,inactive: -0.02,inactive: 0.027,inactive: 0.016,inactive: 0.041,inactive: 0,inactive: -0.004,inactive: -0.056,inactive: -0.054
ANAPC7 (UniProt Q9UJX3),inactive: 0.028,inactive: -0.02,inactive: -0.064,inactive: 0.093,inactive: -0.001,inactive: 0.087,inactive: 0.017,inactive: 0.008,inactive: -0.029,inactive: -0.068,inactive: 0.035
ANKRD28 (UniProt O15084),inactive: -0.06,inactive: -0.058,inactive: -0.083,inactive: -0.003,inactive: 0.01,inactive: 0.043,inactive: 0.06,inactive: 0.02,inactive: -0.009,inactive: -0.03,inactive: 0.018
ANO6 isoform 2 (UniProt Q4KMQ2),inactive: -0.126,inactive: 0.009,inactive: -0.001,inactive: -0.035,inactive: 0,inactive: 0.042,inactive: -0.051,inactive: -0.009,inactive: -0.053,inactive: 0.003,inactive: 0.109
ANKRD17 (UniProt O75179),inactive: 0.014,inactive: -0.158,inactive: 0.003,inactive: -0.15,inactive: 0.033,inactive: 0.071,inactive: -0.068,inactive: 0.042,inactive: 0.229,inactive: -0.084,inactive: 0.091
ANK2 (UniProt Q01484),inactive: -0.146,inactive: -0.196,inactive: -0.183,inactive: -0.16,inactive: 0.001,inactive: 0.134,inactive: -0.104,inactive: -0.004,,inactive: -0.019,
APOC3 (UniProt P02656),inactive: 0.019,inactive: 0.181,inactive: 0.619,,inactive: -0.131,,inactive: 0.177,inactive: -0.159,inactive: 0.106,inactive: 0.066,inactive: 0.228
APH1A (UniProt Q96BI3),inactive: -0.048,inactive: -0.201,inactive: -0.075,active: 0.303,inactive: 0.014,inactive: -0.024,inactive: 0.055,inactive: 0.006,,inactive: 0.085,
AP1S2 (UniProt P56377),inactive: 0.027,inactive: -0.035,inactive: -0.074,,inactive: 0.039,inactive: 0.095,inactive: 0.113,inactive: 0.12,inactive: 0.111,inactive: 0.025,inactive: -0.074
ARCN1 (UniProt P48444),inactive: -0.009,inactive: -0.028,inactive: -0.05,inactive: 0.035,inactive: 0.03,inactive: 0.003,inactive: 0.094,inactive: 0.016,inactive: -0.028,inactive: 0.011,inactive: -0.024
ANTKMT (UniProt Q9BQD7),inactive: -0.16,inactive: -0.168,,inactive: 0.041,inactive: -0.195,inactive: 0.034,inactive: -0.057,,inactive: -0.222,inactive: 0.062,inactive: 0.114

# Retrieved one by one from the entries so far:
Target,log2 fold change [1],log2 fold change [2],log2 fold change [3],log2 fold change [4],log2 fold change [5],log2 fold change [6],log2 fold change [7],log2 fold change [8],log2 fold change [9],log2 fold change [10],log2 fold change [11]
AP1S2 (UniProt P56377),inactive: 0.027,inactive: -0.035,inactive: -0.074,,inactive: 0.039,inactive: 0.095,inactive: 0.113,inactive: 0.12,inactive: 0.111,inactive: 0.025,inactive: -0.074
ANKRD17 (UniProt O75179),inactive: 0.014,inactive: -0.158,inactive: 0.003,inactive: -0.15,inactive: 0.033,inactive: 0.071,inactive: -0.068,inactive: 0.042,inactive: 0.229,inactive: -0.084,inactive: 0.091

# Later entries:

Target,log2 fold change [1],log2 fold change [2],log2 fold change [3],log2 fold change [4],log2 fold change [5],log2 fold change [6],log2 fold change [7],log2 fold change [8],log2 fold change [9],log2 fold change [10],log2 fold change [11]
APMAP (UniProt Q9HDC9),inactive: 0.006,inactive: -0.02,inactive: -0.071,inactive: -0.016,inactive: -0.025,inactive: -0.035,inactive: 0.012,inactive: 0.001,inactive: -0.008,inactive: -0.017,inactive: -0.063
ARHGEF12 (UniProt Q9NZN5),inactive: -0.132,inactive: -0.117,inactive: 0.085,inactive: -0.03,inactive: 0.019,,,inactive: 0.034,inactive: 0.035,,
ARHGDIA (UniProt P52565),inactive: -0.035,inactive: 0.065,inactive: -0.046,inactive: -0.007,inactive: -0.016,inactive: -0.03,inactive: 0.014,inactive: -0.02,inactive: -0.087,inactive: -0.015,inactive: -0.024
ANXA7 (UniProt P20073),inactive: -0.024,inactive: 0.008,inactive: -0.102,inactive: -0.027,inactive: 0.019,inactive: -0.001,inactive: 0.052,inactive: 0.022,inactive: -0.046,inactive: -0.021,inactive: -0.034
APOH (UniProt P02749),inactive: -0.094,inactive: -0.109,inactive: -0.414,inactive: 0.065,inactive: 0.06,inactive: 0.354,inactive: -0.149,inactive: 0.565,,inactive: 0.006,
AP4S1 (UniProt Q9Y587),inactive: -0.014,inactive: 0.039,inactive: -0.11,inactive: 0.019,inactive: 0.062,,inactive: 0.054,inactive: -0.005,inactive: -0.092,inactive: 0.015,
ARG2 (UniProt P78540),inactive: 0.055,inactive: -0.045,inactive: -0.11,inactive: 0.01,inactive: -0.065,inactive: -0.022,inactive: 0.016,inactive: -0.017,inactive: -0.004,inactive: -0.037,inactive: -0.038
ARHGEF2 (UniProt Q92974),inactive: 0.04,inactive: 0.019,inactive: 0.192,inactive: 0.063,inactive: 0.028,inactive: 0.088,inactive: -0.077,inactive: 0.203,inactive: 0.395,inactive: -0.085,inactive: 0.151
ARHGAP6 (UniProt O43182),inactive: -0.197,inactive: -0.305,inactive: 0.169,,inactive: 0.036,,inactive: -0.013,inactive: 0.445,inactive: 0.225,inactive: -0.173,inactive: 0.028
APOO (UniProt Q9BUR5),inactive: 0.021,inactive: 0,inactive: -0.035,inactive: -0.037,inactive: 0.007,inactive: 0.108,inactive: -0.003,inactive: 0,inactive: -0.007,inactive: 0.017,inactive: 0.018
AP4E1 (UniProt Q9UPM8),inactive: 0.063,inactive: -0.015,inactive: 0.016,inactive: -0.036,inactive: -0.056,inactive: 0.132,,inactive: 0.025,inactive: 0.049,,
ARF3 (UniProt P61204),inactive: 0.02,inactive: -0.005,inactive: -0.024,inactive: 0.009,inactive: -0.032,inactive: -0.009,inactive: 0.039,inactive: 0.007,inactive: -0.003,inactive: -0.029,inactive: 0.001
ANPEP (UniProt P15144),inactive: -0.123,inactive: 0.099,inactive: -0.11,,inactive: -0.025,inactive: 0.053,,inactive: 0.025,,,
ARHGEF7 isoform 5 (UniProt Q14155),inactive: -0.037,inactive: -0.035,inactive: 0.097,inactive: -0.045,inactive: 0.055,inactive: 0.106,,inactive: 0.153,inactive: 0.142,,
ARHGEF18 (UniProt Q6ZSZ5),inactive: 0.005,inactive: -0.074,inactive: -0.124,inactive: -0.061,inactive: -0.031,inactive: 0.057,,inactive: 0.101,inactive: 0,,
